Four molecules from paper PMC12231567 can be followed below.

Experiment [1] deals with T1, αKNL2 (KINETOCHORE NULL2), full length, fused to the GAL4 DNA-binding domain (Arabidopsis thaliana) (UniProt F4KCE9).
T1 sequence: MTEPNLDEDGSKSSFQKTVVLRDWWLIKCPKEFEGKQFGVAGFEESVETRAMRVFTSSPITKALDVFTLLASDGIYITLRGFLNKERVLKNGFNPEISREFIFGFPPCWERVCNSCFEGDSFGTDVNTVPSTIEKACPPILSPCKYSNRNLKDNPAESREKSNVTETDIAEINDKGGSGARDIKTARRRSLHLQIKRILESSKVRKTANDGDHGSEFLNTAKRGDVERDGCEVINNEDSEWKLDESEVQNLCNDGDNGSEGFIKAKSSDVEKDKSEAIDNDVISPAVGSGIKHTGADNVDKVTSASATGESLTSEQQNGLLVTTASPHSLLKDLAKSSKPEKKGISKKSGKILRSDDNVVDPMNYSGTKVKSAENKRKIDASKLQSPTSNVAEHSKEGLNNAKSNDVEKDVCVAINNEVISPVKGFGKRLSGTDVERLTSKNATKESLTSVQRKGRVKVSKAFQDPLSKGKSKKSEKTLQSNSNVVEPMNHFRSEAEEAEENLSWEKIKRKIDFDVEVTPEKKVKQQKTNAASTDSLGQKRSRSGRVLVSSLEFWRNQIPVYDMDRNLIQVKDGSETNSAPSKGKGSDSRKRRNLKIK
Description: two-hybrid; cotransformation of pGBKT7 (BD, bait) and pGADT7 (AD, prey) into S. cerevisiae Y2H Gold; drop dilutions on -LT and -LTH (triple dropout) medium, 30 °C.

Experiment [2] deals with T2, αKNL2-C (C-terminal fragment of αKNL2, 364 to 599 aa) fused to the GAL4 DNA-binding domain (Arabidopsis thaliana) (UniProt F4KCE9).
T2 sequence: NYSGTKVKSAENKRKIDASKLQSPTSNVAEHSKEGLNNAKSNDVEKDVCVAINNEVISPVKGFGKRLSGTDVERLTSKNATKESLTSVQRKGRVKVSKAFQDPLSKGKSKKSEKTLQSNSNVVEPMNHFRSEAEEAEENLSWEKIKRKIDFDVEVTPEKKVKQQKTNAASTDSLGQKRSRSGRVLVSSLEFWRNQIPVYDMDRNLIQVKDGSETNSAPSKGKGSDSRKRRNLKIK
The experiment is described as above.

Experiment [3] concerns the target T3, αKNL2-N (N-terminal fragment of αKNL2, 1 to 363 aa) fused to the GAL4 DNA-binding domain (Arabidopsis thaliana) (UniProt F4KCE9).
T3 sequence: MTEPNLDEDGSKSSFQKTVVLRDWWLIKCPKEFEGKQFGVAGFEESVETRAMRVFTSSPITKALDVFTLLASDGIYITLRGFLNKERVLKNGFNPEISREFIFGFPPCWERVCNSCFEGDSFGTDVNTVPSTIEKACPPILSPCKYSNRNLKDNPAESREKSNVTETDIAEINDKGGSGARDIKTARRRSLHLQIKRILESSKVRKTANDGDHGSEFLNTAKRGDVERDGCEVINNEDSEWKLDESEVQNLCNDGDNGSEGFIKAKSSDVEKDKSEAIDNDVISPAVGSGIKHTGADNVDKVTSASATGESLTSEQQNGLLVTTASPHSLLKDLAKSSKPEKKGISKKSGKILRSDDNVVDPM
The description is as above.

For experiment [4], the target named is CDH1.1 fused to a Venus fragment (BiFC) (Arabidopsis thaliana). In words: split reporter; BiFC in N. benthamiana leaves co-infiltrated with A. tumefaciens GV3101 carrying the VENn and VENc fusions (both directions) and HC-Pro; Venus fluorescence in nuclei; some combinations also scored after MG115.

No constants are given. Whether binding was seen depends on the method and setting. For part of these data: In cells and extracts the contact can be indirect. Sequences can lack the tags named with a protein.

Take “CDH1.1 fused to the GAL4 activation domain (Arabidopsis thaliana)”: the binding entry in experiment [1], in experiment [2] and in experiment [3] was “no binding” each time.

B1: αKNL2-C (364 to 599 aa) fused to a Venus fragment and cMYC (BiFC and Co-IP) (domain or fragment, UniProt F4KCE9 364-598)
chain: NYSGTKVKSAENKRKIDASKLQSPTSNVAEHSKEGLNNAKSNDVEKDVCVAINNEVISPVKGFGKRLSGTDVERLTSKNATKESLTSVQRKGRVKVSKAFQDPLSKGKSKKSEKTLQSNSNVVEPMNHFRSEAEEAEENLSWEKIKRKIDFDVEVTPEKKVKQQKTNAASTDSLGQKRSRSGRVLVSSLEFWRNQIPVYDMDRNLIQVKDGSETNSAPSKGKGSDSRKRRNLKIK
Regarding B1, in experiment [4], the binding entry is “no binding”.

B2: αKNL2, full length, fused to a Venus fragment (BiFC) (protein, UniProt F4KCE9 1-598)
chain: MTEPNLDEDGSKSSFQKTVVLRDWWLIKCPKEFEGKQFGVAGFEESVETRAMRVFTSSPITKALDVFTLLASDGIYITLRGFLNKERVLKNGFNPEISREFIFGFPPCWERVCNSCFEGDSFGTDVNTVPSTIEKACPPILSPCKYSNRNLKDNPAESREKSNVTETDIAEINDKGGSGARDIKTARRRSLHLQIKRILESSKVRKTANDGDHGSEFLNTAKRGDVERDGCEVINNEDSEWKLDESEVQNLCNDGDNGSEGFIKAKSSDVEKDKSEAIDNDVISPAVGSGIKHTGADNVDKVTSASATGESLTSEQQNGLLVTTASPHSLLKDLAKSSKPEKKGISKKSGKILRSDDNVVDPMNYSGTKVKSAENKRKIDASKLQSPTSNVAEHSKEGLNNAKSNDVEKDVCVAINNEVISPVKGFGKRLSGTDVERLTSKNATKESLTSVQRKGRVKVSKAFQDPLSKGKSKKSEKTLQSNSNVVEPMNHFRSEAEEAEENLSWEKIKRKIDFDVEVTPEKKVKQQKTNAASTDSLGQKRSRSGRVLVSSLEFWRNQIPVYDMDRNLIQVKDGSETNSAPSKGKGSDSRKRRNLKIK
In the case of B2, the binding result in experiment [4] is “no binding”.

B3: αKNL2-N (1 to 363 aa) fused to a Venus fragment (BiFC) (domain or fragment, UniProt F4KCE9 1-363)
chain: MTEPNLDEDGSKSSFQKTVVLRDWWLIKCPKEFEGKQFGVAGFEESVETRAMRVFTSSPITKALDVFTLLASDGIYITLRGFLNKERVLKNGFNPEISREFIFGFPPCWERVCNSCFEGDSFGTDVNTVPSTIEKACPPILSPCKYSNRNLKDNPAESREKSNVTETDIAEINDKGGSGARDIKTARRRSLHLQIKRILESSKVRKTANDGDHGSEFLNTAKRGDVERDGCEVINNEDSEWKLDESEVQNLCNDGDNGSEGFIKAKSSDVEKDKSEAIDNDVISPAVGSGIKHTGADNVDKVTSASATGESLTSEQQNGLLVTTASPHSLLKDLAKSSKPEKKGISKKSGKILRSDDNVVDPM
With B3, the binding entry in experiment [4] is “no binding”.
